Experiment in all cases: log2 fold change, soluble protein after heating vs DMSO (PISA); higher = thermal stabilisation; K562 lysate, 10 uM; active = over 0.2 and 3.5 SD of the protein, either way, in both replicates (recomputed)
Compound in assay [1]: NCC(=O)Nc1ccc(-n2nc(C(F)(F)F)cc2-c2ccc3c(ccc4ccccc43)c2)cc1
Put shortly: (§1)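 The values are log-two fold changes in thermal stability compared with solvent controls and come from duplicates. They were obtained by TMTpro 16plex LC-MS/MS, with channel sums equalised, on the supernatant after 21,000xg for 90 min. That supernatant came from crude K562 extract at 1 mg/mL protein treated with 10 μM compound for 30 min, heated for 3 min across 48°C-58°C, pooled and brought to 0.5% NP-40 at 4°C.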

By UniProt entry, the sequences of proteins in these tests, tags left out. Where a name states a change or a piece, a line headed by the entry shows the natural chain unless it says otherwise.
UniProt Q13217: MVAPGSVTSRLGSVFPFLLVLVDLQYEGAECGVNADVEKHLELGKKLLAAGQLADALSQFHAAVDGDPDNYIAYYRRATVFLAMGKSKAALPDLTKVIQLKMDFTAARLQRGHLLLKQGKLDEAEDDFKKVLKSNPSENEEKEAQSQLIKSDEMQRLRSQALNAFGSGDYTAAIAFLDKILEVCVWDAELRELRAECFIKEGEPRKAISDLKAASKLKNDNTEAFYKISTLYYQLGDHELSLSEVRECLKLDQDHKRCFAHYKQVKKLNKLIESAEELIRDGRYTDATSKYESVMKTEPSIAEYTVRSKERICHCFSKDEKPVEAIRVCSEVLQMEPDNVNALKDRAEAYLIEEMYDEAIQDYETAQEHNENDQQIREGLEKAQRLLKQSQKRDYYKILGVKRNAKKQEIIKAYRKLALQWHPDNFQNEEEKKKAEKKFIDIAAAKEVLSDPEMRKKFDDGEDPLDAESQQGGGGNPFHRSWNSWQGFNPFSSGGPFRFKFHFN
UniProt Q5F1R6: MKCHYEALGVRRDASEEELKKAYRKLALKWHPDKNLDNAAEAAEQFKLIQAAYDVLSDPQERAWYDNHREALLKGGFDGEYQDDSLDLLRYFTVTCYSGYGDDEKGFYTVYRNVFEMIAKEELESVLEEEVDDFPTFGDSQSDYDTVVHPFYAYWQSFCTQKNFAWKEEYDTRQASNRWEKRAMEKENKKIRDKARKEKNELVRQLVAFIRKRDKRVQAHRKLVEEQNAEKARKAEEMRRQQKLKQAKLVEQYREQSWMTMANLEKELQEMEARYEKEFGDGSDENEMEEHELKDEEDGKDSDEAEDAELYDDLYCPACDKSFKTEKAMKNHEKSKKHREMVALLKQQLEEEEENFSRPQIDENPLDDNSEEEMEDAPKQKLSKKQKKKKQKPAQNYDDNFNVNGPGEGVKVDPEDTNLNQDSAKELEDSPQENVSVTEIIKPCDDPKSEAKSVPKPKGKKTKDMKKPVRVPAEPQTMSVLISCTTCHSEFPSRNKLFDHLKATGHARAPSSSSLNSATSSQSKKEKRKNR
UniProt P50570: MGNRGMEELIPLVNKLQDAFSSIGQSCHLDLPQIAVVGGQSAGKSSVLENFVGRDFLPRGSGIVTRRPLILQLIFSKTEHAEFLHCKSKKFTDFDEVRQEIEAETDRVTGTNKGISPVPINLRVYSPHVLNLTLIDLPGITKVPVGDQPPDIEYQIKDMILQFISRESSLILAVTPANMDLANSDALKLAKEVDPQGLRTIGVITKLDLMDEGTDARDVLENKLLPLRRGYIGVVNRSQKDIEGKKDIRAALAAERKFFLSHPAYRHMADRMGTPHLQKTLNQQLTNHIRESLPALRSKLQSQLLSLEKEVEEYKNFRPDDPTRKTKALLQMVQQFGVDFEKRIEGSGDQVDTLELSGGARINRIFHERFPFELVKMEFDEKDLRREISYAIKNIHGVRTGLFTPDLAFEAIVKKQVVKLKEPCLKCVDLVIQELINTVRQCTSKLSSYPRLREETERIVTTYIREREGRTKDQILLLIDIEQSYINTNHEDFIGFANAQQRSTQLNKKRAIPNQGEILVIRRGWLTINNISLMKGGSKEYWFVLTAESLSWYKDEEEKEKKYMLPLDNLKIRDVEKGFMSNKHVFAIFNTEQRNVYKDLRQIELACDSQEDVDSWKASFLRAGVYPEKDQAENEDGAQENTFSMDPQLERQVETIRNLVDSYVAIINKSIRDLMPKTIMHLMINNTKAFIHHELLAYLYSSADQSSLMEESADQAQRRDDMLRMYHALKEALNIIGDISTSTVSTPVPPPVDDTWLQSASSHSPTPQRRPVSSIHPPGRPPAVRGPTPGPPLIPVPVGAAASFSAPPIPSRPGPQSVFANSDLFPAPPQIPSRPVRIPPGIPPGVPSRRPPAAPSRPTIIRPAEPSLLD
UniProt Q4LDG9: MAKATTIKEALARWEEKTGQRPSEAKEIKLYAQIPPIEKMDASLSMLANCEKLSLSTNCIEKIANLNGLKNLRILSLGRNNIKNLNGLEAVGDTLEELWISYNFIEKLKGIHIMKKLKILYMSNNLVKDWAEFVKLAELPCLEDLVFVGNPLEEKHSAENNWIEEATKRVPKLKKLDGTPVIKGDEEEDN
UniProt Q96DA6: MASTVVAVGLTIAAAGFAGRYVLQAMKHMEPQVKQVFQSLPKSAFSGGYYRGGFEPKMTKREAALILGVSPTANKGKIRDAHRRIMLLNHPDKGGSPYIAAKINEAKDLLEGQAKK
UniProt O00429, whole entry, looked up: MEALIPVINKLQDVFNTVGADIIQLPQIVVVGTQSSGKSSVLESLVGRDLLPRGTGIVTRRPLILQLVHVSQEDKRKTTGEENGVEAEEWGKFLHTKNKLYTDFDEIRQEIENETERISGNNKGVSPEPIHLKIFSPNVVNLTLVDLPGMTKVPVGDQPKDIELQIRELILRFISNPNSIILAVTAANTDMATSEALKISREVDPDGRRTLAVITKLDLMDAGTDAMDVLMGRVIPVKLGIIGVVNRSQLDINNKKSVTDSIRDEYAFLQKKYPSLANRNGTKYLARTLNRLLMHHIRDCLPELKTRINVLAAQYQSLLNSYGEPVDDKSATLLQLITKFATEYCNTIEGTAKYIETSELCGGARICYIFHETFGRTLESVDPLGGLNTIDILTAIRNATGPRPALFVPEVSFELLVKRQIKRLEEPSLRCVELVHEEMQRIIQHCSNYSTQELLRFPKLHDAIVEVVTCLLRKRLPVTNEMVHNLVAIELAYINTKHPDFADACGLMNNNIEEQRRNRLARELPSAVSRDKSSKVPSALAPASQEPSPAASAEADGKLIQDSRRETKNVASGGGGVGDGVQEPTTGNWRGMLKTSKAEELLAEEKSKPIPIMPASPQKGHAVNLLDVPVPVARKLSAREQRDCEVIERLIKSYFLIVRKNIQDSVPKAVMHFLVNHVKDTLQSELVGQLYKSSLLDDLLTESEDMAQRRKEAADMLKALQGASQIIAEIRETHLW
UniProt Q14689: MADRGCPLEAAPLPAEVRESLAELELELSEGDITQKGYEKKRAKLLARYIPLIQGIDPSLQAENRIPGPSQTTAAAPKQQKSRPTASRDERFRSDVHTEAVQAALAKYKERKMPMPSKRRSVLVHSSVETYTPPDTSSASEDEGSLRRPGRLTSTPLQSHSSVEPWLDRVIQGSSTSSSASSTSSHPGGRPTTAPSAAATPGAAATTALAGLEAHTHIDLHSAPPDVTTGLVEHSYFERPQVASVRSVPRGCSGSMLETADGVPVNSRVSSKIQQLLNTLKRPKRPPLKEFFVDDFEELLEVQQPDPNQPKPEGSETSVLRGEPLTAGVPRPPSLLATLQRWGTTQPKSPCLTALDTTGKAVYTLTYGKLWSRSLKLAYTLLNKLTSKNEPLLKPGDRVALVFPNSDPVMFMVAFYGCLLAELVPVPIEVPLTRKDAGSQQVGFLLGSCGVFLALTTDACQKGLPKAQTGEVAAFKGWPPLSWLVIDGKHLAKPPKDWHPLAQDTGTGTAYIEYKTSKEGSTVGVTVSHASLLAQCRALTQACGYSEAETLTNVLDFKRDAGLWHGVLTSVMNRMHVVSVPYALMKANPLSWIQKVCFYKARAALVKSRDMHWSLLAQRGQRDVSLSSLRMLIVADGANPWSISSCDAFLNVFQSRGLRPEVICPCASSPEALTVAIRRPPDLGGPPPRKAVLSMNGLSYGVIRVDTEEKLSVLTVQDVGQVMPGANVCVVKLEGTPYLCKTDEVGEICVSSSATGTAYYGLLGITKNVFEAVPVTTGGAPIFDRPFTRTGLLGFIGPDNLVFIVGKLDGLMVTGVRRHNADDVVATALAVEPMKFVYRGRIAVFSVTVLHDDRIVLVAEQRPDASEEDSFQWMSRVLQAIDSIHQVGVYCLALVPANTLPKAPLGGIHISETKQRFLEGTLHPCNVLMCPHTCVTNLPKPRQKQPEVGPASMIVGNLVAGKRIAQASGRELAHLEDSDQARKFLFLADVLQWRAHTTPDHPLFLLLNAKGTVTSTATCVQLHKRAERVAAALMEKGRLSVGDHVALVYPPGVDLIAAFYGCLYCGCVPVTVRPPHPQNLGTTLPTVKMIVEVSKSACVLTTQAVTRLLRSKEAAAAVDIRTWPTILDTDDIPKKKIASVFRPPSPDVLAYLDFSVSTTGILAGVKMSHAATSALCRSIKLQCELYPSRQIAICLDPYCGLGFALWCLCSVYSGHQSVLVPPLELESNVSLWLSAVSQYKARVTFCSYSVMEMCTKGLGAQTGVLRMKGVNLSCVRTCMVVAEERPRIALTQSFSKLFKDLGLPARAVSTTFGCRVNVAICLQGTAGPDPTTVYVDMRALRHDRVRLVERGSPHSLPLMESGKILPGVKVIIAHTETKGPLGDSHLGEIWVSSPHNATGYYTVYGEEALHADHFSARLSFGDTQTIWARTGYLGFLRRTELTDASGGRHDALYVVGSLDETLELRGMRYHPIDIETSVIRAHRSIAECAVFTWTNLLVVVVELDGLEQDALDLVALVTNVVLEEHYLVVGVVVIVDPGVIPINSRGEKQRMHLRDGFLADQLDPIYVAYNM
UniProt P25685, whole entry, looked up: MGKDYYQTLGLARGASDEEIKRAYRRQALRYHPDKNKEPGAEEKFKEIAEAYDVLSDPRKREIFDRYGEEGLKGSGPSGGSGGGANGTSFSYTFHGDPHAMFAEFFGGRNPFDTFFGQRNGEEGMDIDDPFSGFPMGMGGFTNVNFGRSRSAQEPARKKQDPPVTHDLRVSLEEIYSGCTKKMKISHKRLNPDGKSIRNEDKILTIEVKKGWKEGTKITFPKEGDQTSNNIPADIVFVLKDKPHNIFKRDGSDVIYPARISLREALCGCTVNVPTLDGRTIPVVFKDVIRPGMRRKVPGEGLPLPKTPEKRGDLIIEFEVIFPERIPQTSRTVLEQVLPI
UniProt Q08211, whole entry, looked up: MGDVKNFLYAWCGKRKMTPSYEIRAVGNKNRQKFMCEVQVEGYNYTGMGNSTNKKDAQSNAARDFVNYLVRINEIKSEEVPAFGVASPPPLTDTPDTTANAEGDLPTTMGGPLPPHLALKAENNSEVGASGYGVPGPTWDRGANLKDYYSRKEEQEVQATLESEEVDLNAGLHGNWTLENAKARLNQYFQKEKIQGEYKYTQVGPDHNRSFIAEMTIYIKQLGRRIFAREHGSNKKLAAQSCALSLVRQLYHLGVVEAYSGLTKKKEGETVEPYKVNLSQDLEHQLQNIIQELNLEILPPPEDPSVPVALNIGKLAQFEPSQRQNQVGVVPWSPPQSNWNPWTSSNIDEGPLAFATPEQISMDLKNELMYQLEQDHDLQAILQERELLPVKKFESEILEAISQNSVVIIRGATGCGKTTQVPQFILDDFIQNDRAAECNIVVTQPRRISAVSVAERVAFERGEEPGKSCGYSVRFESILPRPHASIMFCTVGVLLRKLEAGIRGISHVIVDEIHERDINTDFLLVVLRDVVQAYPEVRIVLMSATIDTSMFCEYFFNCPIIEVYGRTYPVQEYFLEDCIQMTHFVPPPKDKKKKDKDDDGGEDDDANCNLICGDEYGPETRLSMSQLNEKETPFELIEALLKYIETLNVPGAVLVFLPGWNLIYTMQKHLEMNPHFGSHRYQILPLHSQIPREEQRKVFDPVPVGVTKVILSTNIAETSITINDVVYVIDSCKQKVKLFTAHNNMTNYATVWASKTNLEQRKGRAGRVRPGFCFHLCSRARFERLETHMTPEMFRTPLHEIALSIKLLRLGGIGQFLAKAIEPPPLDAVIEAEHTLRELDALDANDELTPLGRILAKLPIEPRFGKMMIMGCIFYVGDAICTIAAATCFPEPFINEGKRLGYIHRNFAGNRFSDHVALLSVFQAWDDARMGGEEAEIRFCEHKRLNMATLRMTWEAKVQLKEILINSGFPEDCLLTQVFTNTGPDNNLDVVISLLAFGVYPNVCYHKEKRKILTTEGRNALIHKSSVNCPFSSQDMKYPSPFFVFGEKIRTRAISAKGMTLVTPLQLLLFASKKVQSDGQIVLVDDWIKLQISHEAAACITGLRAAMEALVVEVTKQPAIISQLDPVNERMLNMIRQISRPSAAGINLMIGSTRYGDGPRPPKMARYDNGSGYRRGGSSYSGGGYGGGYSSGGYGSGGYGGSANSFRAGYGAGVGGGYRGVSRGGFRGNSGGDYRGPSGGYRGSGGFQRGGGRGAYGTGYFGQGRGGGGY
UniProt P36957: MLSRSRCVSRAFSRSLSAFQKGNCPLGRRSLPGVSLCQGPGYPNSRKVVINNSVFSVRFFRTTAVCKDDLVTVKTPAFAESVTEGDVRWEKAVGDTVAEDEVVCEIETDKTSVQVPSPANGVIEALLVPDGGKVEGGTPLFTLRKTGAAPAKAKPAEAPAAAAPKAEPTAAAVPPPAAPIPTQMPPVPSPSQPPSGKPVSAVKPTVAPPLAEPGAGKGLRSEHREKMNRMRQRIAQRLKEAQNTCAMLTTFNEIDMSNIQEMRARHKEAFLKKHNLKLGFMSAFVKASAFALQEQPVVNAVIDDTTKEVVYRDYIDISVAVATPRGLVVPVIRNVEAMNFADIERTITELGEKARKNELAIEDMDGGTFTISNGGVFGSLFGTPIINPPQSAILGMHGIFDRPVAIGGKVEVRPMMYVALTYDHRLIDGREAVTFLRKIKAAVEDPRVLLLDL

Compound in another assay: O=C(CCCCCCC(=O)Nc1ccccc1)NO [vorinostat]
Summed up: as §1

Compound in another assay: O=C(O)c1ccc2c(c1)nc(Nc1cccc(Cl)c1)c1ccncc12 [silmitasertib]
Summed up:
as §1

Compound in assay [2]: O=C1NC(=O)C(c2cnc3ccccn23)=C1c1cn2c3c(cc(F)cc13)CN(C(=O)N1CCCCC1)CC2
Summed up: as §1

Compound in the next assay: c1cn2cc(-c3ccc4cn[nH]c4c3)nc(Nc3ccc(N4CCOCC4)cc3)c2n1 [entospletinib]
Summed up: as §1

The other results are listed elsewhere or left out.

Consider DHX36 (UniProt Q9H2U1), for which the log2 fold change in assay [1] is inactive: 0.011; with vorinostat, inactive: -0.006; with silmitasertib it was inactive: -0.007; in assay [2], inactive: -0.016; in the assay with entospletinib, inactive: -0.029.

In the case of DNAJC3 (UniProt Q13217), the log2 fold change was inactive: -0.029 in assay [1]; inactive: 0.064 with vorinostat; inactive: 0.017 in the assay with silmitasertib; inactive: 0.033 in assay [2]; inactive: 0 with entospletinib.

In the case of DLAT (UniProt P10515), the log2 fold change in assay [1] is inactive: 0.009; in the assay with vorinostat it was inactive: 0; with silmitasertib it was inactive: -0.014; in assay [2], inactive: 0.004; with entospletinib it was inactive: -0.008.

Turning to DNAJC21 isoform 3 (UniProt Q5F1R6), the log2 fold change in assay [1] is inactive: 0.009; with vorinostat, inactive: -0.198; with silmitasertib, inactive: 0.031; in assay [2], inactive: -0.029; with entospletinib, inactive: 0.001.

For DHX57 (UniProt Q6P158), the log2 fold change in assay [1] is inactive: -0.013; with vorinostat, inactive: -0.013; in the assay with silmitasertib, inactive: -0.002; in assay [2] it was inactive: 0.005; with entospletinib, inactive: -0.047.

DGCR8 (UniProt Q8WYQ5): the log2 fold change in assay [1] is inactive: -0.027; with vorinostat, active: -0.38; with silmitasertib, inactive: -0.041; in assay [2] it was inactive: -0.054; with entospletinib it was inactive: -0.066.

Take DIABLO (UniProt Q9NR28): the log2 fold change is inactive: -0.017 in assay [1]; inactive: 0.135 with vorinostat; inactive: -0.002 with silmitasertib; inactive: -0.007 in assay [2]; inactive: 0.019 with entospletinib.

Regarding DHRS4 (UniProt Q9BTZ2), the log2 fold change was inactive: -0.026 in assay [1]; inactive: -0.009 in the assay with vorinostat; inactive: -0.003 in the assay with silmitasertib; inactive: -0.014 in assay [2]; inactive: -0.019 with entospletinib.

DNM2 (UniProt P50570): the log2 fold change is inactive: 0.011 in assay [1]; active: -0.27 with vorinostat; inactive: 0.061 in the assay with silmitasertib; inactive: -0.021 in assay [2]; inactive: 0.014 with entospletinib.

As for DNAL1 (UniProt Q4LDG9), the log2 fold change in assay [1] is inactive: 0.02; with vorinostat it was inactive: 0.064; in the assay with silmitasertib it was inactive: 0.023; in assay [2], inactive: 0.097; in the assay with entospletinib, inactive: -0.079.

Regarding DNAJC19 (UniProt Q96DA6), the log2 fold change was inactive: -0.039 in assay [1]; inactive: 0.143 in the assay with vorinostat; inactive: -0.01 in the assay with silmitasertib; inactive: 0.036 in assay [2]; inactive: 0.018 with entospletinib.

For DNPEP (UniProt Q9ULA0), the log2 fold change in assay [1] was inactive: -0.008; with vorinostat, inactive: 0.112; in the assay with silmitasertib it was inactive: -0.006; in assay [2] it was inactive: 0.014; with entospletinib, inactive: 0.007.

For the target DNM1L isoform 6 (UniProt O00429), the log2 fold change was inactive: 0.018 in assay [1]; inactive: -0.048 with vorinostat; inactive: 0.019 in the assay with silmitasertib; inactive: 0.002 in assay [2]; inactive: 0.015 in the assay with entospletinib.

As to DHX30 isoform 2 (UniProt Q7L2E3), the log2 fold change in assay [1] was inactive: 0.001; with vorinostat it was inactive: -0.104; in the assay with silmitasertib, inactive: 0.011; in assay [2], inactive: 0.026; in the assay with entospletinib, inactive: 0.021.

In the case of DIP2A (UniProt Q14689), the log2 fold change in assay [1] is inactive: 0.004; with vorinostat it was inactive: -0.075; with silmitasertib it was inactive: 0.01; in assay [2], inactive: 0.04; with entospletinib, inactive: -0.014.

For DNAJC6 isoform 2 (UniProt O75061), the log2 fold change in assay [1] was inactive: -0.003; in the assay with vorinostat, inactive: 0.029; in the assay with silmitasertib, inactive: -0.04; in assay [2] it was inactive: -0.023; with entospletinib, inactive: 0.005.

For the target DHODH (UniProt Q02127), the log2 fold change in assay [1] was inactive: 0.036; in the assay with vorinostat it was inactive: 0.064; with silmitasertib, inactive: -0.005; in assay [2] it was inactive: -0.005; with entospletinib, inactive: -0.053.

Consider DNAJC1 (UniProt Q96KC8), for which the log2 fold change in assay [1] was inactive: 0.003; with vorinostat, inactive: 0.017; with silmitasertib, inactive: 0.025; in assay [2], inactive: -0.007; with entospletinib, inactive: -0.032.

As for DNAJB1 (UniProt P25685), the log2 fold change is inactive: -0.027 in assay [1]; inactive: -0.062 with vorinostat; inactive: 0.012 with silmitasertib; inactive: -0.02 in assay [2]; inactive: 0.001 with entospletinib.

On to DHX9 (UniProt Q08211), for which the log2 fold change is inactive: -0.006 in assay [1]; inactive: -0.072 with vorinostat; inactive: 0.036 in the assay with silmitasertib; inactive: 0 in assay [2]; inactive: 0.03 with entospletinib.

Turning to DLST (UniProt P36957), the log2 fold change in assay [1] is inactive: 0.011; in the assay with vorinostat, inactive: 0.154; with silmitasertib it was inactive: -0.026; in assay [2], inactive: -0.008; in the assay with entospletinib, inactive: -0.028.

Turning to DNM1L isoform 2 (UniProt O00429), the log2 fold change was inactive: 0.156 in assay [1]; inactive: 0.065 in the assay with vorinostat; inactive: 0.195 in the assay with silmitasertib; inactive: -0.045 in assay [2]; inactive: 0.27 in the assay with entospletinib.

Consider DHCR7 (UniProt Q9UBM7), for which the log2 fold change in assay [1] was inactive: -0.098; with vorinostat it was inactive: -0.022; in the assay with silmitasertib, inactive: 0.03; in assay [2], inactive: -0.004; with entospletinib, inactive: 0.078.

In the case of DGUOK (UniProt Q16854), the log2 fold change in assay [1] is inactive: 0.036; with vorinostat it was inactive: 0.125; in the assay with silmitasertib, inactive: -0.042; in assay [2] it was inactive: 0.002; with entospletinib, inactive: -0.018.

The values above are taken from the supplement of paper PMC10849652.
